Results on 40 compounds are retold here after PubChem BioAssay AID493014 (National Center for Advancing Translational Sciences (NCATS), 2011).

This experiment is described as follows: qHTS Assay to Find Inhibitors of Chronic Active B-Cell Receptor Signaling. To be noted: ABC-DLBCL IkBa-CBG/CBR reporter, luminescence ratio (green luciferase fused to IkBa over red control in TMD8 lymphoma cells), 4 h. The method, boiled down: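 Doxycycline induced both beetle luciferases in TMD8 lymphoma cells; IKK-driven degradation limits the IkappaBalpha-fused green signal, while red luminescence normalises for cell number and nonspecific effects. Compounds tested up to 46 uM, 4 hrs.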

Where [1] appears, read: measured here: CBR red luminescence, cell number.
The mark [2] stands for this setting: measured here: IkBa-CBG green luminescence.

Several values for one entry are separate records, joined by “and”; a condition that tells them apart may be missing. Equal entries are not always repeated. The list shows a part of the results. Further columns of the screen follow, without active or inactive calls. The list favours compounds with an active or inconclusive main result. Potencies come from curve fits of mixed quality, noted in brackets.

One may read the AC50 as the midpoint of the concentration-response curve, whichever way the signal moves. As to `Cc1ccc(S(=O)(=O)N2CCOCC2)cc1C(=O)OCC(=O)N1CCc2ccccc2C1`, the concentration at half-maximal activity (AC50) under setting [1] is 3.66 µM [falling, single point].

As to `O=[N+]([O-])c1ccc(OCC2CC(c3ccccc3)=NO2)cc1` (stereo not drawn), the AC50 under setting [1] was 0.2 µM [rising, full curve, poor fit].

In the case of `CCCCC(=O)NC(c1ccccc1Cl)c1ccc2cccnc2c1O` (stereo not drawn), under setting [1], the AC50 was 3.55 µM [falling, full curve].

Take `Cc1nc(-c2cccc(Br)c2)ccc1C(=O)O`: the AC50 under setting [2] is 3.16 µM [rising, full curve, poor fit].

`O=C(CSc1nc(-c2cccs2)nc2ccccc12)NC1CCS(=O)(=O)C1` (stereo not drawn): under setting [1], the concentration at half-maximal activity (AC50) was 0.58 µM [falling, full curve, poor fit].

Turning to `Cc1cccc(/C(N)=N/OC(=O)c2ccoc2C)c1`, under setting [1], the AC50 is 35.5 µM [falling, single point].

As for `COc1ccc(N2CCN(C(=O)COc3ccc4c(C)cc(=O)oc4c3)CC2)cc1`, under setting [1], the concentration at half-maximal activity (AC50) was 12.6 µM [rising, partial curve, poor fit].

For `Cc1csc2nc(CSc3nc4ccccc4o3)cn12`, the AC50 is, setting by setting: under setting [1], 17.8 µM [falling, partial curve]; under setting [2], 25.1 µM [falling, single point].

For the compound `Cc1ccc(S(=O)(=O)N2CCOCC2)cc1C(=O)Nc1ccc(-c2cn3ccsc3n2)cc1`, the concentration at half-maximal activity (AC50) under setting [1] was 16.4 µM [falling, single point].

For the compound `CN(C)c1ccc(/C=C(\C#N)c2ccccn2)cc1`, the concentration at half-maximal activity (AC50) under setting [1] is 6.51 µM [falling, partial curve].

For the compound `O=C(NCCc1ccccc1)c1ccc2c(c1)OCCO2`, the AC50 under setting [1] is 1.41 µM [falling, full curve].

As for `Oc1cccc2ccc(/C=C/c3ccc(Br)s3)nc12`, the AC50 runs as follows: under setting [1], 7.94 µM [falling, partial curve]; under setting [2], 17.8 µM [falling, partial curve, poor fit].

Consider `NS(=O)(=O)c1ccc(CCNC(=S)NC2CCCC2)cc1`, for which the AC50 under setting [1] is 1.26 µM [rising, partial curve, poor fit].

Regarding `C=CCN1CC(=O)N2C(c3ccccc3)c3[nH]c4ccccc4c3C[C@H]2C1=O` (stereo partly drawn), the AC50 under setting [1] was 14.1 µM [falling, single point].

As for `COc1ccc(/C=C/c2onc(C)c2S(=O)(=O)N2CCC(C(=O)N3CCCCC3)CC2)cc1`, under setting [1], the AC50 was 4.47 µM [rising, partial curve, poor fit].

In the case of `Cc1ccc(-c2cn(-c3ccc(OC(F)F)cc3)c3[n+]2CCCCC3)cc1`, the concentration at half-maximal activity (AC50) under setting [1] is 5.62 µM [rising, single point].

With `CN(C)c1cccc2c1c(NC(=O)Nc1ccccc1)nn2C`, the half-maximal activity concentration (AC50) under setting [1] is 3.16 µM [rising, partial curve, poor fit].

With `O=S(=O)(Nc1cc(C(F)(F)F)ccc1N1CCOCC1)c1ccc2ccccc2c1`, under setting [1], the half-maximal activity concentration (AC50) is 29.1 µM [falling, single point].

`CC(C)(C)OC(=O)NCCCCCNC(=O)c1[nH]cnc1C(=O)Nc1ccccc1`: the AC50 under setting [1] was 20.6 µM [falling, single point].

For the compound `O=C(CSCc1ccc(Cl)cc1)Nc1cccc(C(=O)Nc2ccccc2C(=O)O)c1`, under setting [1], the AC50 was 20.6 µM [falling, partial curve, poor fit].

Take `COc1ccc(/C(N)=N/OC(=O)C2CCCCC2)cc1OC`: the AC50 under setting [1] was 2.24 µM [rising, partial curve, poor fit].

For the compound `CCC(=O)N(Cc1cc2ccc(C)cc2n2nnnc12)C1CCCCC1`, under setting [1], the AC50 is 0.092 µM [rising, full curve].

Take `Cc1cc(C)cc(N(CC(=O)Nc2ccccc2)C2=NC3CS(=O)(=O)CC3S2)c1` (stereo not drawn): under setting [1], the AC50 is 12.6 µM [falling, partial curve, poor fit].

Take `O=C(CSc1nnc2ncccn12)N1CCCCCC1`: the concentration at half-maximal activity (AC50) under setting [1] is 32.6 µM [rising, single point].

As to `COc1ccc(C#Cc2c(-c3ccccc3)n(-c3ccccc3)c3ccc(CO)cc23)cc1`, the AC50 under setting [1] is 9.2 µM [rising, partial curve].

On to `O=C(Nc1ccccc1)Nc1n[nH]c2nnc(-c3ccccc3)c(-c3ccccc3)c12`, for which, under setting [1], the concentration at half-maximal activity (AC50) was 11.2 µM [falling, partial curve, poor fit].

As to `Cn1c2ccsc2c2ncn(Cc3ccc(F)cc3)c(=O)c21`, the AC50 under setting [1] was 1.84 µM [rising, full curve] and 2.91 µM [rising, partial curve, poor fit].

As for `C[C@H]1C=C(C(=O)NC2CC2)O[C@@H](OCc2ccc(CO)cc2)C1`, the concentration at half-maximal activity (AC50) under setting [1] was 22.4 µM [rising, partial curve, poor fit].

Consider `Cc1cccc(-c2nc(=S)c3c(o2)CCCC3)c1`, for which, under setting [1], the concentration at half-maximal activity (AC50) is 25.9 µM [rising, single point].

Consider `COc1ccc(NC(=O)Nc2cccnc2)cc1`, for which the concentration at half-maximal activity (AC50) under setting [1] was 10 µM [falling, partial curve, poor fit].

For the compound `O=C1Nc2ccccc2C1=Nc1ccc(Cl)cc1`, the AC50 under setting [1] is 1.26 µM [falling, full curve, poor fit].

As to `Cc1ccc(C(=O)Nc2ccccc2-c2ccccc2)cc1S(=O)(=O)Nc1ccccc1`, the AC50 under setting [1] was 16.4 µM [falling, single point].

Take `OC(COc1ccc2ccccc2c1)CN1CCCC1` (stereo not drawn): under setting [1], the concentration at half-maximal activity (AC50) was 2.82 µM [falling, partial curve].

For `CCc1ccc(Oc2cc(Cl)nc(N)n2)cc1`, under setting [1], the AC50 was 4.61 µM [rising, full curve, poor fit].

With `NNC(=O)c1[nH]c2ccc(Cl)cc2c1-c1ccccc1`, the AC50 is 3.16 µM [rising, full curve] under setting [1] and 3.98 µM [falling, full curve] under setting [2].

For the compound `Cc1ccc(CNC(=O)c2cn(C)c3ccc(S(=O)(=O)N4CCOCC4)cc3c2=O)cc1`, under setting [1], the concentration at half-maximal activity (AC50) was 3.16 µM [falling, single point].

As to `CCn1c(NCc2cc(OC)c(OC)c(OC)c2)nc2ccccc21`, the AC50 under setting [1] was 0.562 µM [rising, full curve, poor fit].

For the compound `CCn1cc(C(=O)NCCCOC)c2cc(OC)c(OC)cc2c1=O`, the concentration at half-maximal activity (AC50) under setting [1] was 0.366 µM [falling, full curve, poor fit].

For the compound `CCOc1cc(C(=O)Nc2nnc(CC)s2)ccc1OCC(=O)N1CCOCC1`, the half-maximal activity concentration (AC50) under setting [1] was 3.55 µM [falling, partial curve, poor fit].

Regarding `COC(=O)c1cc(C)cc(=O)o1`, the half-maximal activity concentration (AC50) under setting [1] is 0.112 µM [rising, full curve, poor fit].
